In patent US10494356B2, “Compound promoting osteoblast differentiation and inhibiting adipocyte differentiation, preparation method thereof and application thereof” (SUNG KYUN BIOTECH CO., LTD., priority 2016, dated 2019):
For at least one compound, name, drawing or mass did not settle the structure.

Legend:
[1] = system: C3H10T1/2 cells; assay: ALP (alkaline phosphatase) production during differentiation of C3H10T1/2 cells into osteoblasts (ALP staining, -b value); assay type: cell-based, mouse; conditions: 0.1, 0.5, 1 and 5 μM, 9 days differentiation, compared to DMSO-treated negative control
Description: The C3H10T1/2 cells derived from mouse embryo fibroblasts are pluripotent stem cells that can differentiate into various cell lineages including osteoblasts. Because one of the characteristics of osteoblasts is the ALP (alkaline phosphatase) activity, the differentiation of the C3H10T1/2 cells into osteoblasts was measured based on the ALP activity.
The C3H10T1/2 cells were cultured with a DMEM medium supplemented with 10% FBS and 1% penicillin/streptomycin under the condition of 37° C. and 5% CO2. The C3H10T1/2 cells were cultured on a 6-well plate at a concentration of 2.5×10^4/mL with a medium containing 10 mM β-glycerophosphate and 50 μg/mL ascorbic acid for osteocyte differentiation. The differentiation was performed for 9 days after adding the NK11 compound at 0.1, 0.5, 1 and 5 μM, while replacing the medium with 3-day intervals. Then, ALP staining was performed using 5-bromo-4-chloro-3-indolyl phosphate/nitro blue tetrazolium (BCIP/NBT).
Then, the Lab color space was measured using the image files of the ALP-stained well plate.

[2] = system: C3H10T1/2 cells; assay: Fat production during differentiation of C3H10T1/2 cells into adipocytes (Oil Red O staining); assay type: cell-based, mouse; conditions: 0.1, 0.5, 1 and 5 μM, 9 days differentiation, compared to DMSO-treated negative control
Description: After plating the cells on a 6-well plate in the same manner as in Test Example 1, they were cultured for 9 days in a medium containing 1 μM dexamethasone, 5 μg/mL insulin and 1 μM troglitazone for adipocyte differentiation after adding the NK11 compound at 0.1, 0.5, 1 and 5 μM. After completion of differentiation, the medium was removed and the cells were fixed with 10% neutral buffered formalin and stained with 0.5% Oil Red O solution.
Then, the Lab color space was measured using the image files of the Oil Red O-stained well plate.

[3] = system: PPARγ, aP2 and CD36 mRNAs in C3H10T1/2 cells; assay: mRNA expression of adipocyte differentiation factors PPARγ, aP2 and CD36 (real-time PCR); assay type: cell-based, mouse
Description: (§1) The mRNA expression levels of the osteoblast differentiation factor and the adipocyte differentiation factor in the cells treated with the NK11 compound were investigated.
(§2) First, the expression level of the osteoblast differentiation factor ALP was investigated while differentiating the C3H10T1/2 cells into osteoblasts in the same manner as in […]. Also, the expression levels of the adipocyte differentiation factors PPARγ, aP2 and CD36 compound were investigated while differentiating the C3H10T1/2 cells into adipocytes in the same manner as in Test Example 1.
(§3) Total RNA was extracted using TRIzol (Invitrogen). 1 μg of the isolated RNA was synthesized into cDNA by adding random primers, dNTP and PrimeScript™ reverse transcriptase (Takara). The synthesized cDNA was subjected to real-time PCR using primers and SYBR Premix Ex Taq (Takara).

[4] = system: ALP mRNA in C3H10T1/2 cells; assay: mRNA expression of osteoblast differentiation factor ALP (real-time PCR); assay type: cell-based, mouse
Description: as §1, §2, §3

[5] = system: ovariectomized white rats; assay: Ovariectomized metabolic bone disease animal model; assay type: in vivo, SD (Sprague-Dawley) rats; conditions: 8 weeks
[6] = Test Example 3: NK11 at 1 μM, other compounds at 5 μM

SMILES: COc1cc([C@@H]2O[C@@H](c3cc(OC)c(O)c(OC)c3)[C@H](COC(=O)/C=C/c3ccc(O)cc3)[C@H]2COC(=O)/C=C/c2ccc(O)cc2)cc(OC)c1O [NK11, (2E,2′E)-(-2,5-bis(4-hydroxy-3,5-dimethoxyphenyl)tetrahydrofuran-3,4-diyl)bis(methylene)bis(3-(4-hydroxyphenyl)acrylate)]
- ALP production [1]: increased ALP production in a concentration-dependent manner
- fat production by adipocytes (Oil Red O) [2]: inhibit fat production by adipocytes in a concentration-dependent manner
- expression levels of the adipocyte-related genes CD36, aP2 and PPARγ ([3]; 0.1, 0.5, 1 and 5 μM, mRNA, real-time PCR): decreased in a concentration-dependent manner
- expression levels of the adipocyte-related genes CD36, aP2 and PPARγ [3, 6]: higher effect of inhibiting the expression of the adipocyte differentiation factors
- expression level of ALP, osteogenesis marker (mRNA) [4, 6]: promoting the expression of the osteoblast differentiation factor
- expression of ALP, osteogenesis marker (mRNA) ([4]; at the concentration of 5 μM): expressed highly
- expression level of ALP (mRNA, thighbone) versus positive control groups ([5]; 1 mg/kg oral, positive controls 50 μg/kg estradiol, 50 mg/kg soy isoflavone): comparable to that of the positive control groups
- bone mineral density (BMD) of the thighbone ([5]; 0.5 and 1 mg/kg oral, dual-energy X-ray, compared to estradiol or soy isoflavone): significantly increases bone density in a concentration-dependent manner
- expression level of the osteoblast differentiation factor ALP (mRNA, thighbone) ([5]; 0.5 and 1 mg/kg oral, vs OVX): increased the expression level of ALP in a concentration-dependent manner
